We go through five substances from PMC10149743, “Structural studies of the nucleus-like assembly of jumbo bacteriophage 201φ2-1” (Frontiers in Microbiology, 2023).

Amino acid sequences for entries named in this document (tags omitted). A change or cut given only in a name is not applied to a line headed by its entry.
UniProt B3FIW8: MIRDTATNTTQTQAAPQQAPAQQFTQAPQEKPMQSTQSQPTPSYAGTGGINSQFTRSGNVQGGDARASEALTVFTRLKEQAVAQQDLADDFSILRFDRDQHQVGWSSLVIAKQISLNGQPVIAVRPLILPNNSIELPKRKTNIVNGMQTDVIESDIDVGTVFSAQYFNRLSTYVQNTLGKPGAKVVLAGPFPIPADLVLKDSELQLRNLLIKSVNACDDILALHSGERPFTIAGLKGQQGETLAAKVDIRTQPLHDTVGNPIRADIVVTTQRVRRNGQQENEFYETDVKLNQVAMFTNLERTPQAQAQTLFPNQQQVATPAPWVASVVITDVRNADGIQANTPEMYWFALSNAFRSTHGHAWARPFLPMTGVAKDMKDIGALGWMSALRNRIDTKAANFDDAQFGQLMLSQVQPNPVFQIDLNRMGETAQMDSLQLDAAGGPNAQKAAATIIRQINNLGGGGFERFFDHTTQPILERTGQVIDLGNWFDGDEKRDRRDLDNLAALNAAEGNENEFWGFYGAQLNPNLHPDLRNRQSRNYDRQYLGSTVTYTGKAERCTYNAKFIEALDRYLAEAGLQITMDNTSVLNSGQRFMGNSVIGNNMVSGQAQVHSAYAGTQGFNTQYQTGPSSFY

Common to all, as to assay: SEC; truncation mutants of gp105, purified as the wild type, Superose 6 Increase 10/300 GL in buffer B (20 mM HEPES pH 7.5, 150 mM NaCl); self-association; both purified
For orientation: SEC sorts molecules by how far they enter the pores of the column.

The target of assay [1] is gp105Δ(CTS 578–631) (Pseudomonas phage 201phi2-1) (UniProt B3FIW8).
For assay [2], the target named is gp105Δ(NTS 1–60, CTS 578–631) (Pseudomonas phage 201phi2-1) (UniProt B3FIW8).
In assay [3] the target is gp105Δ(NTS 1–60, loop 279–285, CTS 578–631) (Pseudomonas phage 201phi2-1) (UniProt B3FIW8).
The target of assay [4] is gp105Δ(NTS 1–60, loop 279–285, loop 302–322, CTS 578–631) (Pseudomonas phage 201phi2-1) (UniProt B3FIW8).
Assay [5] deals with gp105Δ(NTS 1–60, loop 302–322, CTS 578–631) (Pseudomonas phage 201phi2-1) (UniProt B3FIW8).

Results are given in words; binding and its absence hold for the method and conditions named.

Consider “gp105Δ(CTS 578–631) (from UniProt B3FIW8 1-577) (domain or fragment)”, for which the binding entry in assay [1] is “no binding”.

With “gp105Δ(NTS 1–60, CTS 578–631) (from UniProt B3FIW8 61-577) (domain or fragment)”, in assay [2], the binding entry is on record as “no binding”.

In the case of “gp105Δ(NTS 1–60, loop 279–285, CTS 578–631) (from UniProt B3FIW8 61-577) (domain or fragment)”, the binding result in assay [3] is listed as “no binding”.

For the substance “gp105Δ(NTS 1–60, loop 279–285, loop 302–322, CTS 578–631) (from UniProt B3FIW8 61-577) (domain or fragment)”, the binding result in assay [4] is given as “no binding”.

With “gp105Δ(NTS 1–60, loop 302–322, CTS 578–631) (from UniProt B3FIW8 61-577) (domain or fragment)”, the binding result in assay [5] is reported as “no binding”.
